Measurements taken from paper PMC6351106.
Results are given in words; binding and its absence hold for the method and conditions named. Binding seen in cells or lysates may run through a third protein. Some binding calls cover weakened binding; strength is not graded here. For part of these data: Sequences can lack the tags named with a protein.

Key:
[1] = molecular target: Streptag-FLAG-tagged SEC23B(S186D) (human) (UniProt Q15437); assay: co-IP; affinity purification of Streptag-tagged bait on Streptactin beads from transfected HEK293T extracts (50 mM Tris pH 7.4, 150 mM NaCl, 2 mM EDTA, 10% glycerol, 0.5% NP-40; 2 h at 4 C), immunoblotting; in some panels MLN4924 for 4 h, EBSS starvation or co-expressed ULK1
[2] = molecular target: Streptag-FLAG-tagged SEC23B(S186A) (human) (UniProt Q15437); assay: as above
[3] = molecular target: Streptag-FLAG-tagged SEC23B (human) (UniProt Q15437); assay: as above
[4] = molecular target: Streptag-FLAG-tagged SEC23B(S186N) (human) (UniProt Q15437); assay: co-IP; immunoprecipitation with FLAG (FLAG-M2) beads from transfected HEK293T extracts, immunoblotting; Figure 1F untreated or MLN4924 for 4 h
[5] = molecular target: Streptag-FLAG-tagged SEC23B (human) (UniProt Q15437); assay: as above
[6] = molecular target: endogenous SEC23B (human (endogenous in HEK293T)) (UniProt Q15437); assay: co-IP; competition: HEK293T co-transfected with SF-FBXW5 and increasing amounts of HA-tagged SEC24B; affinity purification with Streptactin beads, immunoblotting

Measured: binding

B1: endogenous SEC31 (protein, UniProt O94979 1-1220)
chain: MKLKEVDRTAMQAWSPAQNHPIYLATGTSAQQLDATFSTNASLEIFELDLSDPSLDMKSCATFSSSHRYHKLIWGPYKMDSKGDVSGVLIAGGENGNIILYDPSKIIAGDKEVVIAQNDKHTGPVRALDVNIFQTNLVASGANESEIYIWDLNNFATPMTPGAKTQPPEDISCIAWNRQVQHILASASPSGRATVWDLRKNEPIIKVSDHSNRMHCSGLAWHPDVATQMVLASEDDRLPVIQMWDLRFASSPLRVLENHARGILAIAWSMADPELLLSCGKDAKILCSNPNTGEVLYELPTNTQWCFDIQWCPRNPAVLSAASFDGRISVYSIMGGSTDGLRQKQVDKLSSSFGNLDPFGTGQPLPPLQIPQQTAQHSIVLPLKKPPKWIRRPVGASFSFGGKLVTFENVRMPSHQGAEQQQQQHHVFISQVVTEKEFLSRSDQLQQAVQSQGFINYCQKKIDASQTEFEKNVWSFLKVNFEDDSRGKYLELLGYRKEDLGKKIALALNKVDGANVALKDSDQVAQSDGEESPAAEEQLLGEHIKEEKEESEFLPSSGGTFNISVSGDIDGLITQALLTGNFESAVDLCLHDNRMADAIILAIAGGQELLARTQKKYFAKSQSKITRLITAVVMKNWKEIVESCDLKNWREALAAVLTYAKPDEFSALCDLLGTRLENEGDSLLQTQACLCYICAGNVEKLVACWTKAQDGSHPLSLQDLIEKVVILRKAVQLTQAMDTSTVGVLLAAKMSQYANLLAAQGSIAAALAFLPDNTNQPNIMQLRDRLCRAQGEPVAGHESPKIPYEKQQLPKGRPGPVAGHHQMPRVQTQQYYPHGENPPPPGFIMHGNVNPNAAGQLPTSPGHMHTQVPPYPQPQPYQPAQPYPFGTGGSAMYRPQQPVAPPTSNAYPNTPYISSASSYTGQSQLYAAQHQASSPTSSPATSFPPPPSSGASFQHGGPGAPPSSSAYALPPGTTGTLPAASELPASQRTGPQNGWNDPPALNRVPKKKKMPENFMPPVPITSPIMNPLGDPQSQMLQQQPSAPVPLSSQSSFPQPHLPGGQPFHGVQQPLGQTGMPPSFSKPNIEGAPGAPIGNTFQHVQSLPTKKITKKPIPDEHLILKTTFEDLIQRCLSSATDPQTKRKLDDASKRLEFLYDKLREQTLSPTITSGLHNIARSIETRNYSEGLTMHTHIVSTSNFSETSAFMPVLKVVLTQANKLGV
binds: [1]

B2: endogenous SEC24B (protein, UniProt O95487 1-1268)
chain: MSAPAGSSHPAASARIPPKFGGAAVSGAAAPAGPGAGPAPHQQNGPAQNQMQVPSGYGLHHQNYIAPSGHYSQGPGKMTSLPLDTQCGDYYSALYTVPTQNVTPNTVNQQPGAQQLYSRGPPAPHIVGSTLGSFQGAASSASHLHTSASQPYSSFVNHYNSPAMYSASSSVASQGFPSTCGHYAMSTVSNAAYPSVSYPSLPAGDTYGQMFTSQNAPTVRPVKDNSFSGQNTAISHPSPLPPLPSQQHHQQQSLSGYSTLTWSSPGLPSTQDNLIRNHTGSLAVANNNPTITVADSLSCPVMQNVQPPKSSPVVSTVLSGSSGSSSTRTPPTANHPVEPVTSVTQPSELLQQKGVQYGEYVNNQASSAPTPLSSTSDDEEEEEEDEEAGVDSSSTTSSASPMPNSYDALEGGSYPDMLSSSASSPAPDPAPEPDPASAPAPASAPAPVVPQPSKMAKPFGYGYPTLQPGYQNATAPLISGVQPSNPVYSGFQQYPQQYPGVNQLSSSIGGLSLQSSPQPESLRPVNLTQERNILPMTPVWAPVPNLNADLKKLNCSPDSFRCTLTNIPQTQALLNKAKLPLGLLLHPFRDLTQLPVITSNTIVRCRSCRTYINPFVSFIDQRRWKCNLCYRVNDVPEEFMYNPLTRSYGEPHKRPEVQNSTVEFIASSDYMLRPPQPAVYLFVLDVSHNAVEAGYLTILCQSLLENLDKLPGDSRTRIGFMTFDSTIHFYNLQEGLSQPQMLIVSDIDDVFLPTPDSLLVNLYESKELIKDLLNALPNMFTNTRETHSALGPALQAAFKLMSPTGGRVSVFQTQLPSLGAGLLQSREDPNQRSSTKVVQHLGPATDFYKKLALDCSGQQTAVDLFLLSSQYSDLASLACMSKYSAGCIYYYPSFHYTHNPSQAEKLQKDLKRYLTRKIGFEAVMRIRCTKGLSMHTFHGNFFVRSTDLLSLANINPDAGFAVQLSIEESLTDTSLVCFQTALLYTSSKGERRIRVHTLCLPVVSSLADVYAGVDVQAAICLLANMAVDRSVSSSLSDARDALVNAVVDSLSAYGSTVSNLQHSALMAPSSLKLFPLYVLALLKQKAFRTGTSTRLDDRVYAMCQIKSQPLVHLMKMIHPNLYRIDRLTDEGAVHVNDRIVPQPPLQKLSAEKLTREGAFLMDCGSVFYIWVGKGCDNNFIEDVLGYTNFASIPQKMTHLPELDTLSSERARSFITWLRDSRPLSPILHIVKDESPAKAEFFQHLIEDRTEAAFSYYEFLLHVQQQICK
binds: [1] | [2] | [3] | [4] | [5]

B3: HA-tagged SEC24B (protein, UniProt O95487 1-1268)
chain: MSAPAGSSHPAASARIPPKFGGAAVSGAAAPAGPGAGPAPHQQNGPAQNQMQVPSGYGLHHQNYIAPSGHYSQGPGKMTSLPLDTQCGDYYSALYTVPTQNVTPNTVNQQPGAQQLYSRGPPAPHIVGSTLGSFQGAASSASHLHTSASQPYSSFVNHYNSPAMYSASSSVASQGFPSTCGHYAMSTVSNAAYPSVSYPSLPAGDTYGQMFTSQNAPTVRPVKDNSFSGQNTAISHPSPLPPLPSQQHHQQQSLSGYSTLTWSSPGLPSTQDNLIRNHTGSLAVANNNPTITVADSLSCPVMQNVQPPKSSPVVSTVLSGSSGSSSTRTPPTANHPVEPVTSVTQPSELLQQKGVQYGEYVNNQASSAPTPLSSTSDDEEEEEEDEEAGVDSSSTTSSASPMPNSYDALEGGSYPDMLSSSASSPAPDPAPEPDPASAPAPASAPAPVVPQPSKMAKPFGYGYPTLQPGYQNATAPLISGVQPSNPVYSGFQQYPQQYPGVNQLSSSIGGLSLQSSPQPESLRPVNLTQERNILPMTPVWAPVPNLNADLKKLNCSPDSFRCTLTNIPQTQALLNKAKLPLGLLLHPFRDLTQLPVITSNTIVRCRSCRTYINPFVSFIDQRRWKCNLCYRVNDVPEEFMYNPLTRSYGEPHKRPEVQNSTVEFIASSDYMLRPPQPAVYLFVLDVSHNAVEAGYLTILCQSLLENLDKLPGDSRTRIGFMTFDSTIHFYNLQEGLSQPQMLIVSDIDDVFLPTPDSLLVNLYESKELIKDLLNALPNMFTNTRETHSALGPALQAAFKLMSPTGGRVSVFQTQLPSLGAGLLQSREDPNQRSSTKVVQHLGPATDFYKKLALDCSGQQTAVDLFLLSSQYSDLASLACMSKYSAGCIYYYPSFHYTHNPSQAEKLQKDLKRYLTRKIGFEAVMRIRCTKGLSMHTFHGNFFVRSTDLLSLANINPDAGFAVQLSIEESLTDTSLVCFQTALLYTSSKGERRIRVHTLCLPVVSSLADVYAGVDVQAAICLLANMAVDRSVSSSLSDARDALVNAVVDSLSAYGSTVSNLQHSALMAPSSLKLFPLYVLALLKQKAFRTGTSTRLDDRVYAMCQIKSQPLVHLMKMIHPNLYRIDRLTDEGAVHVNDRIVPQPPLQKLSAEKLTREGAFLMDCGSVFYIWVGKGCDNNFIEDVLGYTNFASIPQKMTHLPELDTLSSERARSFITWLRDSRPLSPILHIVKDESPAKAEFFQHLIEDRTEAAFSYYEFLLHVQQQICK
binds: [6]

B4: endogenous SEC24A (protein, UniProt O95486 1-1093)
chain: MSQPGIPASGGAPASLQAQNGAALASGSPYTNGPVQNALLSSQESVSQGYNFQLPGSYPHPIPAKTLNPVSGQSNYGGSQGSGQTLNRPPVASNPVTPSLHSGPAPRMPLPASQNPATTPMPSSSFLPEANLPPPLNWQYNYPSTASQTNHCPRASSQPTVSGNTSLTTNHQYVSSGYPSLQNSFIKSGPSVPPLVNPPLPTTFQPGAPHGPPPAGGPPPVRALTPLTSSYRDVPQPLFNSAVNQEGITSNTNNGSMVVHSSYDEIEGGGLLATPQLTNKNPKMSRSVGYSYPSLPPGYQNTTPPGATGVPPSSLNYPSGPQAFTQTPLGANHLTTSMSGLSLQPEGLRVVNLLQERNMLPSTPLKPPVPNLHEDIQKLNCNPELFRCTLTSIPQTQALLNKAKLPLGLLLHPFKDLVQLPVVTSSTIVRCRSCRTYINPFVSFLDQRRWKCNLCYRVNDVPEEFLYNPLTRVYGEPHRRPEVQNATIEFMAPSEYMLRPPQPPVYLFVFDVSHNAVETGYLNSVCQSLLDNLDLLPGNTRTKIGFITFDSTIHFYGLQESLSQPQMLIVSDIEDVFIPMPENLLVNLNESKELVQDLLKTLPQMFTKTLETQSALGPALQAAFKLMSPTGGRMSVFQTQLPTLGVGALKPREEPNHRSSAKDIHMTPSTDFYKKLALDCSGQQVAVDLFLLSGQYSDLASLGCISRYSAGSVYYYPSYHHQHNPVQVQKLQKELQRYLTRKIGFEAVMRIRCTKGLSIHTFHGNFFVRSTDLLSLPNVNPDAGYAVQMSVEESLTDTQLVSFQSALLYTSSKGERRIRVHTLCLPVVSTLNDVFLGADVQAISGLLANMAVDRSMTASLSDARDALVNAVIDSLSAYRSSVLSNQQPGLMVPFSLRLFPLFVLALLKQKSFQTGTNARLDERIFAMCQVKNQPLVYLMLTTHPSLYRVDNLSDEGALNISDRTIPQPPILQLSVEKLSRDGAFLMDAGSVLMLWVGKNCTQNFLSQVLGVQNYASIPQPMTDLPELDTPESARIIAFISWLREQRPFFPILYVIRDESPMKANFLQNMIEDRTESALSYYEFLLHIQQQVNK
binds: [1] | [2] | [3] | [4] | [5]
